T/C data for one molecule are collected here from PubChem BioAssay AID224 (DTP/NCI, 2004).

The subject of this assay is P335 leukemia ip, BDF1 mice, survival T/C %. In words: NCI In Vivo Anticancer Drug Screen. Data for tumor model P335 Leukemia (intraperitoneal) in B6D2F1 (BDF1) mice. Conditions: T/C endpoint: mean survival time, schedule: Q01DX Z (ip), vehicle: saline, higher T/C = longer survival. On the procedure: The antitumor activity of compounds was measured in mice bearing transplantable tumors. Survival or tumor size were measured and the results are expressed as the measurement made in the treated group (T) divided by the measurement made in the vehicle treated control group (C). The tumor model used in this assay is P335 Leukemia (intraperitoneal) in B6D2F1 (BDF1) mice

Each structure is given as a SMILES string. The list does not hold the whole screen: its compounds were picked by chemical class. Not every dose and run of a compound is shown. T/C is the treated group as % of the vehicle group. For survival time, this PubChem deposit counts one and a half times the control or more as active, and values a quarter to a half above the control carry no call in these data; other NCI protocols may use other cut-offs. Some T/C values are marked as having no survivor count here; that says nothing about deaths at the dose. Schedule codes are those of the source, read here as Q, the interval in days (D) or hours (H), X, the number of doses. Some schedule codes hold Z or #, which are not explained here. Some entries were tested several times; their values stand side by side, smallest first.

As to `CN(CCCl)CCCl`, the T/C was 122 % of control [survivor count not shown] (dose: 0.02 mg/kg/injection); 108 % of control [survivor count not shown] (dose: 0.08 mg/kg/injection); 106 % of control [survivor count not shown] (dose: 0.32 mg/kg/injection); 87 % of control [survivor count not shown] (dose: 0.6 micrograms/kg/injection); 90 % of control [survivor count not shown] (dose: 5.0 micrograms/kg/injection); 125 % of control [survivor count not shown] (dose: 10.0 micrograms/kg/injection). For the same molecule, the T/C (dose: 20.0 micrograms/kg/injection) is 103 [survivor count not shown] and 166 % of control [survivor count not shown]; the T/C (dose: 40.0 micrograms/kg/injection) is 160 % of control [survivor count not shown].
